From publication PMC4006739
These are yes or no findings as the source states them, for the method shown. In cells and extracts the contact can be indirect. For part of these data: Binding can be weak; no strength is given.

Tests used:
Assay in all cases: pull-down; purified GST::ERM-1 fusion proteins on glutathione-sepharose beads incubated with 500 µg total protein worm extracts (wild type, lin-7(e1413) or let-23(sy1)); bound LET-23 detected on anti-LET-23 Western blots; only the target purified
[1] = target: GST::ERM-1 FERM domain (construct not named for this experiment) (C. elegans)
[2] = target: GST::ERM-1_(1–167) (C. elegans)
[3] = target: GST::ERM-1_(1–311) (C. elegans)
[4] = target: GST::ERM-1_(312–564) (C. elegans)
[5] = target: GST::ERM-1_(1–100) (C. elegans)
[6] = target: GST::ERM-1_(1–240) (C. elegans)

binding [1]: binds | binding [2]: no binding | binding [3]: binds | binding [4]: no binding | binding [5]: no binding | binding [6]: binds
B1: LET-23 EGFR (receptor, UniProt P24348 21-1323)
chain: FGNSNAQLWKRCVSPQDCLCSGTTNGISRYGTGNILEDLETMYRGCRRVYGNLEITWIEANEIKKWRESTNSTVDPKNEDSPLKSINFFDNLEEIRGSLIIYRANIQKISFPRLRVIYGDEVFHDNALYIHKNDKVHEVVMRELRVIRNGSVTIQDNPKMCYIGDKIDWKELLYDPDVQKVETTNSHQHCYQNGKSMAKCHESCNDKCWGSGDNDCQRVYRSVCPKSCSQCFYSNSTSSYECCDSACLGGCTGHGPKNCIACSKYELDGICIETCPSRKIFNHKTGRLVFNPDGRYQNGNHCVKECPPELLIENDVCVRHCSDGHHYDATKDVRECEKCRSSSCPKICTVDGHLTNETLKNLEGCEQIDGHLIIEHAFTYEQLKVLETVKIVSEYITIVQQNFYDLKFLKNLQIIEGRKLHNVRWALAIYQCDDLEELSLNSLKLIKTGAVLIMKNHRLCYVSKIDWSSIITSKGKDNKPSLAIAENRDSKLCETEQRVCDKNCNKRGCWGKEPEDCLECKTWKSVGTCVEKCDTKGFLRNQTSMKCERCSPECETCNGLGELDCLTCRHKTLYNSDFGNRMECVHDCPVSHFPTQKNVCEKCHPTCYDNGCTGPDSNLGYGGCKQCKYAVKYENDTIFCLQSSGMNNVCVENDLPNYYISTYDTEGVIETHCEKCSISCKTCSSAGRNVVQNKCVCKHVEYQPNPSERICMDQCPVNSFMVPDTNNTVCKKCHHECDQNYHCANGQSTGCQKCKNFTVFKGDIAQCVSECPKNLPFSNPANGECLDYDIASRQRKTRMVIIGSVLFGFAVMFLFILLVYWRCQRIGKKLKIAEMVDMPELTPIDASVRPNMSRICLIPSSELQTKLDKKLGAGAFGTVFAGIYYPKRAKNVKIPVAIKVFQTDQSQTDEMLEEATNMFRLRHDNLLKIIGFCMHDDGLKIVTIYRPLGNLQNFLKLHKENLGAREQVLYCYQIASGMQYLEKQRVVHRDLATRNVLVKKFNHVEITDFGLSKILKHDADSITIKSGKVAIKWLAIEIFSKHCYTHASDVWAFGVTCWEIITFGQSPYQGMSTDSIHNFLKDGNRLSQPPNCSQDLYQELLRCWMADPKSRPGFEILYERFKEFCKVPQLFLENSNKISESDLSAEERFQTERIREMFDGNIDPQMYFDQGSLPSMPSSPTSMATFTIPHGDLMNRMQSVNSSRYKTEPFDYGSTAQEDNSYLIPKTKEVQQSAVLYTAVTNEDGQTELSPSNGDYYNQPNTPSSSSGYYNEPHLKTKKPETSEEAEAVQYENEEVSQKETCL
